We go through 28 targets from the supplement of paper PMC10849652.

Chains of the proteins cited; added tags and fusions are not shown. Lines headed by an entry give the natural chain unless they say otherwise; changes in a name come on top.
UniProt Q9Y6P5: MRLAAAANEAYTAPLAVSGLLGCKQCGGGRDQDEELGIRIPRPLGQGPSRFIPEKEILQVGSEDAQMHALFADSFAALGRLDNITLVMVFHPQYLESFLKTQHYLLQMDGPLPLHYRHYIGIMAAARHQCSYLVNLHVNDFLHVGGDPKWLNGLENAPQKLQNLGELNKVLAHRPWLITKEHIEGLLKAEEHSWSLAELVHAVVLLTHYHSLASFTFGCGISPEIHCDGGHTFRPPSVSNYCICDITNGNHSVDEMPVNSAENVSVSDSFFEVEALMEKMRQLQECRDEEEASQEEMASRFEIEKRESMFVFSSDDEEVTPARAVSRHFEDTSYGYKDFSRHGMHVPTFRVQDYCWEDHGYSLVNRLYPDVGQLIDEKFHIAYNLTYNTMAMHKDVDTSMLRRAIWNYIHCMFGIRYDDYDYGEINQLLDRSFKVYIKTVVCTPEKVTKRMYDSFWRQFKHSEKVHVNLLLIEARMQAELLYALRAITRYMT
UniProt P09131: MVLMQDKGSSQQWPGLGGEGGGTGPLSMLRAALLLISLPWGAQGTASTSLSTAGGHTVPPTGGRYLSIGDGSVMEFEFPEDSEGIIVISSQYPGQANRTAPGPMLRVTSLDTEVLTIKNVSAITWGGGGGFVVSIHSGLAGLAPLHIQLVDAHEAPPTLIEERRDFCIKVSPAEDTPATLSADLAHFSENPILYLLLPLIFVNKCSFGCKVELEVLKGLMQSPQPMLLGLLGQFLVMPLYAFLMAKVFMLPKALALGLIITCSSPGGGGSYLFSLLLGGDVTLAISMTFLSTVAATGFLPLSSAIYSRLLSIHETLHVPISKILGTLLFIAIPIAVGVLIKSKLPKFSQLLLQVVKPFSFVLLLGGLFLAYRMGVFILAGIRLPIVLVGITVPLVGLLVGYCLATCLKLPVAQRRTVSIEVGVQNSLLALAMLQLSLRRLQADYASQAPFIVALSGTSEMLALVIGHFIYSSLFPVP
UniProt Q7Z333: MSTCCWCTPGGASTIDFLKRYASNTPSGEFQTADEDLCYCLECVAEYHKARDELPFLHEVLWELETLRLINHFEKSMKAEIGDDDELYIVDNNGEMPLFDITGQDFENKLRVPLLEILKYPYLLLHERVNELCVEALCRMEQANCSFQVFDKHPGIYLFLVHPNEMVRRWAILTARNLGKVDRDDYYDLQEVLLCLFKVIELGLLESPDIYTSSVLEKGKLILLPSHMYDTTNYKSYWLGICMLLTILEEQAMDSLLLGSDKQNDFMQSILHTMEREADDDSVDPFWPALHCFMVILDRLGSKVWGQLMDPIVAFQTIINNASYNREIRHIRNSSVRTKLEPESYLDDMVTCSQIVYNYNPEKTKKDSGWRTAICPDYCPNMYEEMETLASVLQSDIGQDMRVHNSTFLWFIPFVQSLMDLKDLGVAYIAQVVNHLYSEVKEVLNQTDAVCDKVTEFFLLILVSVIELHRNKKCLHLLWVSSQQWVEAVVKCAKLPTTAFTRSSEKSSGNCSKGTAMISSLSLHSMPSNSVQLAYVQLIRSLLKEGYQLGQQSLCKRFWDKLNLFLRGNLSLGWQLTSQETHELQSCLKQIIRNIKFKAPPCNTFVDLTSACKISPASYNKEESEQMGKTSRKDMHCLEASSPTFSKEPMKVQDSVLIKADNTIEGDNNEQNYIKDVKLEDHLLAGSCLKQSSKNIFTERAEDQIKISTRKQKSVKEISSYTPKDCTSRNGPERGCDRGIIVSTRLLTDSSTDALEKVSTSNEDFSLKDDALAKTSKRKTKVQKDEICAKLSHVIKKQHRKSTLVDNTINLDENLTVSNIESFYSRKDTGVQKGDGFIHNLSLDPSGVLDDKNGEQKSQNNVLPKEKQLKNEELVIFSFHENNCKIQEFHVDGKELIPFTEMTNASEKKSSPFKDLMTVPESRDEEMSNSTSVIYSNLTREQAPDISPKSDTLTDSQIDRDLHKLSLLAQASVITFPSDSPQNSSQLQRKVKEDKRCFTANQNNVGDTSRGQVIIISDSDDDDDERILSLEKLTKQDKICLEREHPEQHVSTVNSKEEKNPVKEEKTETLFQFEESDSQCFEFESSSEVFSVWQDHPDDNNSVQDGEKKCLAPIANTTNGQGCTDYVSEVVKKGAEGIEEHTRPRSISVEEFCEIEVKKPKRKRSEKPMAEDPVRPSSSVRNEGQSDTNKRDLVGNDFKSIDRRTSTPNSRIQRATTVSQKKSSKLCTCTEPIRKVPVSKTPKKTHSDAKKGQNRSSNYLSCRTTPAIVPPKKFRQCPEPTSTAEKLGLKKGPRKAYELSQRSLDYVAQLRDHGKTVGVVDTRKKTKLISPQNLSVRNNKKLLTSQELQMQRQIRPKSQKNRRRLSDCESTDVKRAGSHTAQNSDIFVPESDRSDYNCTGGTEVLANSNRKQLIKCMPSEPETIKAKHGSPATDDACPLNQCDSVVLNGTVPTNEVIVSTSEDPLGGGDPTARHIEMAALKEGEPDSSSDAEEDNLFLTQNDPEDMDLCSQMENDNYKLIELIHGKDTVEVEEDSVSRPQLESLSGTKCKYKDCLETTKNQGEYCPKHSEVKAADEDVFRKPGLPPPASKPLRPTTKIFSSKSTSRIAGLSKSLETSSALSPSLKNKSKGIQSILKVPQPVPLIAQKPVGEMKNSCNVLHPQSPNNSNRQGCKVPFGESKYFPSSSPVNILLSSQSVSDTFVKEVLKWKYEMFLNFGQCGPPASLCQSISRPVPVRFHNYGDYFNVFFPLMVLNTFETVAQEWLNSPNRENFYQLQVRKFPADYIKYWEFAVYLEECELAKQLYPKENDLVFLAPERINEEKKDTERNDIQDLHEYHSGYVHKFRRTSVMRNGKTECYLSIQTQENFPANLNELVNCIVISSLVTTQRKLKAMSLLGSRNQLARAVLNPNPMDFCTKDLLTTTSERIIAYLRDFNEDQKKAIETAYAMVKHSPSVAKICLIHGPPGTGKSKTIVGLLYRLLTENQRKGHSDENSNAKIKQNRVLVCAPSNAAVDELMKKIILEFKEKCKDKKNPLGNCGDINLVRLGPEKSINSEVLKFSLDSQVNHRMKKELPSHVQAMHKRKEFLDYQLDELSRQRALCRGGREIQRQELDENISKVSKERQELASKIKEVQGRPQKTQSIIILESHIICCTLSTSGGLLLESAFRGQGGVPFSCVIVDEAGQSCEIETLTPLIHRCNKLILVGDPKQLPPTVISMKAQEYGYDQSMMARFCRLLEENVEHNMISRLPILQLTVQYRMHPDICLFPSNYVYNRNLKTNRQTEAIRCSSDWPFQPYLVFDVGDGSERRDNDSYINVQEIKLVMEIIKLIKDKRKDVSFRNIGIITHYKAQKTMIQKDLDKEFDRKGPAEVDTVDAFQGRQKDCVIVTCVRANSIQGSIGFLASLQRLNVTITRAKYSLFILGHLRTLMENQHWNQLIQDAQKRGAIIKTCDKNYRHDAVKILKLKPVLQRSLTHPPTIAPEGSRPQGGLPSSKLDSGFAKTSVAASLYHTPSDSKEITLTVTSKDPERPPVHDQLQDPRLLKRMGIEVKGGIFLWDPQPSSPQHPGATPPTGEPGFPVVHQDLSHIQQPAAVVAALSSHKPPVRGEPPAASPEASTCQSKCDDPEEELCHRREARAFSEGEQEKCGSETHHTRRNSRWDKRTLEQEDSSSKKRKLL
UniProt Q13309, whole entry, looked up: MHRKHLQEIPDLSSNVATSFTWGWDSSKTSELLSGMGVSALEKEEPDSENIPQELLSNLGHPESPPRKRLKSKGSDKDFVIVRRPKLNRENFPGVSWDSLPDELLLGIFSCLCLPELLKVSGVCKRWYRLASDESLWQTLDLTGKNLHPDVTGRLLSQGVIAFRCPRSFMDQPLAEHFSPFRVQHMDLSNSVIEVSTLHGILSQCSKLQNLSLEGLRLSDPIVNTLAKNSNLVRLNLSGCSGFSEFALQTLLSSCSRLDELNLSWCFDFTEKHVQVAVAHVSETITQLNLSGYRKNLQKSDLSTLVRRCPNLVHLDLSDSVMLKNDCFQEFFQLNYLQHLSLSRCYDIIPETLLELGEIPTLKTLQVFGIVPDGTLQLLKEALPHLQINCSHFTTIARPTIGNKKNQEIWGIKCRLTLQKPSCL
UniProt P01009, whole entry, looked up: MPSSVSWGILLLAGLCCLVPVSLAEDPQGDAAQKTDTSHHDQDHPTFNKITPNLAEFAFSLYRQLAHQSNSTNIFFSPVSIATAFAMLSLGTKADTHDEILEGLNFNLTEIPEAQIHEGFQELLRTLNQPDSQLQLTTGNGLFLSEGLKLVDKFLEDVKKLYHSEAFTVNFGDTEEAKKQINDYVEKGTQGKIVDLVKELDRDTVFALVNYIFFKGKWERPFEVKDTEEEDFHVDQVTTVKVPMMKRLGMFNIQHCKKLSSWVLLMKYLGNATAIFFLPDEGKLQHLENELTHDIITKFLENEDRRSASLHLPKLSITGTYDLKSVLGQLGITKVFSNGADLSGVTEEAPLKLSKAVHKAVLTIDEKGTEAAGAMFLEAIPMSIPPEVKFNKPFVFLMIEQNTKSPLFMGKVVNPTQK
UniProt Q9Y2K2: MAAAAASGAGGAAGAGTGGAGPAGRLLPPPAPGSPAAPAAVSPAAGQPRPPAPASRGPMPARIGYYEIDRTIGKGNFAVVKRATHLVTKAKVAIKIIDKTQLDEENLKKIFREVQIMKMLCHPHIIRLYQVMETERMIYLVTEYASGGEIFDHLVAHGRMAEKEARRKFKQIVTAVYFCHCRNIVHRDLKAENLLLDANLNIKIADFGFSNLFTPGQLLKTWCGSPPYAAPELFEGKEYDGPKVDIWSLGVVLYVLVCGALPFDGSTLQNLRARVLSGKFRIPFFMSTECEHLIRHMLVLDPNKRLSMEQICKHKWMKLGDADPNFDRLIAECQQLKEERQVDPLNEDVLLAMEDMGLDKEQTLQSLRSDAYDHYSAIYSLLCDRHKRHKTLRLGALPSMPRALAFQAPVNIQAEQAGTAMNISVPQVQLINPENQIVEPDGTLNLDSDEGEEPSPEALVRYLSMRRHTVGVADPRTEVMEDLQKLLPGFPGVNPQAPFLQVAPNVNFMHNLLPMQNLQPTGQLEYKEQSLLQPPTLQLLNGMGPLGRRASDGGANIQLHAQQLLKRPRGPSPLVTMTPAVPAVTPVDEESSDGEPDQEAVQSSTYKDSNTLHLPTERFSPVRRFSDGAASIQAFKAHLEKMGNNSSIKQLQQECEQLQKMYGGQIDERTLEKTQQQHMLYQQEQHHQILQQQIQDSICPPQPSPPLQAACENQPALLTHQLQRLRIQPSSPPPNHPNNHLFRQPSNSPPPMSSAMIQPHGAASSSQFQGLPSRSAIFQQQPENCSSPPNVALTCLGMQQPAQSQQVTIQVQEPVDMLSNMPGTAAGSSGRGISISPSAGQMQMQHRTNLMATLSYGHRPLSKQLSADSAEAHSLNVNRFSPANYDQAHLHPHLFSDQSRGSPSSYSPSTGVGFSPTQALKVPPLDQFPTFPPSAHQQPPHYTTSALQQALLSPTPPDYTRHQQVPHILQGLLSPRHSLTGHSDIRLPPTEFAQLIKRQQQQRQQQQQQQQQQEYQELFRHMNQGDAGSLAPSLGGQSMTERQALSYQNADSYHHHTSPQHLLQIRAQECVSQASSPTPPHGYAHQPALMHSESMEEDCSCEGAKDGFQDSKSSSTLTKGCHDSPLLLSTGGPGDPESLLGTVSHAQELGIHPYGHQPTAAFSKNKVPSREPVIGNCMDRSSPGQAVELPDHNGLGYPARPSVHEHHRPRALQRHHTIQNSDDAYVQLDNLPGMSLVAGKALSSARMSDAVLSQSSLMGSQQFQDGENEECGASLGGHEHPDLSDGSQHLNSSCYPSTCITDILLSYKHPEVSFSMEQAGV

Some of the results follow.

Compound in this experiment: c1ccc([C@@H]2C[C@H]2NC2CCNCC2)cc1
The experiment can be described thus: log2 fold change, soluble protein after heating vs DMSO (PISA); higher = thermal stabilisation; K562 lysate, 10 uM; active = over 0.2 and 3.5 SD of the protein, either way, in both replicates (recomputed). A digest of the protocol: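 Pellets of K562 cells were dounce-homogenised in PBS pH 7.4 with 1 mM MgCl2, and the crude extract was held at 1 mg/mL protein for a 30 min treatment with 10 μM compound. Aliquots were heated for 3 min over 48°C-58°C and pooled before NP-40 was added to 0.5% at 4°C. The supernatant from 21,000xg for 90 min was quantified by TMTpro 16plex LC-MS/MS with channel sums equalised. Values are reported from duplicates as log-two fold change in thermal stability relative to solvent controls.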
As to SGMS1 (UniProt Q86VZ5), the log2 fold change was inactive: 0.013.
In the case of SLC12A7 (UniProt Q9Y666) it was inactive: 0.103.
Regarding SESN1 isoform 2 (UniProt Q9Y6P5), the log2 fold change was inactive: 0.136.
For SKIL (UniProt P12757) the value was inactive: 0.031.
As to SF1 (UniProt H7C0N4), the log2 fold change is inactive: -0.064.
For the target SIN3B (UniProt O75182), the log2 fold change was inactive: 0.052.
Take SLC10A3 (UniProt P09131): the log2 fold change was inactive: -0.046.
On to SIK2 (UniProt Q9H0K1), for which the log2 fold change was inactive: -0.029.
For the target SKI (UniProt P12755), the log2 fold change was inactive: -0.075.
For SETX isoform 4 (UniProt Q7Z333) the value was inactive: -0.024; for SHB (UniProt Q15464), inactive: 0.086; for SH2B1 (UniProt Q9NRF2), inactive: 0.081.
For SIX5 (UniProt Q8N196), the log2 fold change is inactive: 0.209.
For the target SKOR2 (UniProt Q2VWA4), the log2 fold change is inactive: -0.274.
As for SIGIRR (UniProt Q6IA17), the log2 fold change is inactive: -0.004.
For the target SET isoform 3 (UniProt Q01105), the log2 fold change is inactive: -0.074.
In the case of SIAE (UniProt Q9HAT2) it was inactive: 0.082.
In the case of SKP2 (UniProt Q13309) it was inactive: 0.001; in that of SERPINA1 (UniProt P01009), inactive: -0.084.
Take SGSH (UniProt P51688): the log2 fold change is inactive: -0.041.
For SH2D1B (UniProt O14796), the log2 fold change was inactive: 0.024.
For the target SHC1 (UniProt P29353), the log2 fold change was inactive: 0.201.
On to SLC18B1 (UniProt Q6NT16), for which the log2 fold change was inactive: -0.092.
Turning to SF3B2 (UniProt E9PJ04), the log2 fold change is inactive: 0.042.
For SFT2D3 (UniProt Q587I9), the log2 fold change is inactive: -0.158.
Take SIX4 (UniProt Q9UIU6): the log2 fold change is inactive: 0.123.
For the target SINHCAF (UniProt Q9NP50), the log2 fold change was inactive: 0.19.
On to SIK3 (UniProt Q9Y2K2), for which the log2 fold change is inactive: -0.134.
